# Data from article PMC7812315.
# Chains of the proteins cited; added tags and fusions are not shown. Lines headed by an entry give the natural chain unless they say otherwise; changes in a name come on top. A line that says so, or that is headed by a name, gives the form on record, which may keep a tag or linker.
# UniProt Q08024: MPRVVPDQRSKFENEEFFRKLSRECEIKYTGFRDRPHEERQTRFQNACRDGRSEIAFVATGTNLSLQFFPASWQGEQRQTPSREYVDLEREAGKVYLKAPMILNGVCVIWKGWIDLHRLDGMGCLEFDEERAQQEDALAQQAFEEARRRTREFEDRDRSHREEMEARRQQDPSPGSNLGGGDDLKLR
# UniProt Q03347: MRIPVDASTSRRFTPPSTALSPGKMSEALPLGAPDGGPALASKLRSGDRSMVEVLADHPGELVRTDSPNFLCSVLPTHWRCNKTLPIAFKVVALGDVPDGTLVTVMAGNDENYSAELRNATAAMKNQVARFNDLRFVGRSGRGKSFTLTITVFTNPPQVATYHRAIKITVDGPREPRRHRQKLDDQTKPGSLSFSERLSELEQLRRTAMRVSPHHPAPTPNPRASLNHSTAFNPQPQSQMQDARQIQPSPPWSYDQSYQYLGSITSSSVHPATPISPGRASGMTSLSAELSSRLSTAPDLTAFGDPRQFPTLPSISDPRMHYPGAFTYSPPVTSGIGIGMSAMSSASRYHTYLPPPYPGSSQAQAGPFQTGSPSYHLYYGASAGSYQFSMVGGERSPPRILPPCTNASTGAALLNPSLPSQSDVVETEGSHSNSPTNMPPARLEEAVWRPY
# RUNX1 R204X (Q01196-8, form named): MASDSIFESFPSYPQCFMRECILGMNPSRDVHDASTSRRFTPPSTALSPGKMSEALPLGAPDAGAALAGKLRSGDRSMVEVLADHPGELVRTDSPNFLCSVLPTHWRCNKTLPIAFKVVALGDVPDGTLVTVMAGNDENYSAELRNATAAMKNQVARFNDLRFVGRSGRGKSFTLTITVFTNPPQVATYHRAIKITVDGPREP
# RUNX1 R201Q (Q01196-8, form named): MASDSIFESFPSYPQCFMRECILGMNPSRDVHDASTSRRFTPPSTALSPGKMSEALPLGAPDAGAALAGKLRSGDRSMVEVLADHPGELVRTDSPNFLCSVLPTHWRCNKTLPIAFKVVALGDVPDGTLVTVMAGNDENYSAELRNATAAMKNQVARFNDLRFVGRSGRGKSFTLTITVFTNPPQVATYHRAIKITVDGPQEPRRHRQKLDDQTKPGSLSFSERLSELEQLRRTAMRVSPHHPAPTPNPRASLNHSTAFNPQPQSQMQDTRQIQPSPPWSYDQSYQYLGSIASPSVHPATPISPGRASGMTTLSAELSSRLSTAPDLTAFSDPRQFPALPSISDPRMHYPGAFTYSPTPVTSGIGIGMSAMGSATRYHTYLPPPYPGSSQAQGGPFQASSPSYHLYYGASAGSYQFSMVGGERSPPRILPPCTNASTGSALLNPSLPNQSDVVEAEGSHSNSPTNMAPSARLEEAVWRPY
# These are yes or no findings as the source states them, for the method shown. Binding seen in cells or lysates may run through a third protein. Some entries that bind do so weakly or less than the wild type.
# Target: CBFβ (mouse (endogenous in mouse ESC-derived progenitors)) (UniProt Q08024)
# Assay: proximity ligation; in situ PLA (Duolink) on cytospun, formaldehyde-fixed, permeabilised progenitors with or without dox induction of mutant RUNX1; anti-CBFβ paired with anti-RUNX1 (C-terminal), anti-HA or anti-EVI1, 1 h at room temperature
row,Substance,binding
1,endogenous RUNX1 (from UniProt Q03347 1-451),binds
2,RUNX1 R204X (from UniProt Q01196-8 1-203) (domain or fragment),binds weakly
3,RUNX1 R201Q (from UniProt Q01196-8 1-480),binds weakly
